# Measured values from US9856273B2, “ETP derivatives” (priority 2012, dated 2018).
# For at least one compound, name, drawing or mass did not settle the structure.
# Experiments:
# MV4-11 AML SQ xenografts = type: in vivo, mouse; details: MV4-11 xenograft, 5 mg/kg or 10 mg/kg orally once daily for 20 days
# Method: Human MV4-11 acute myeloid leukemia (AML) cancer cells (5×10^6) that have FLT-ITD mutations were resuspended in serum-free RPMI1640 medium and Matrigel (ration of 1:1) and subcutaneously injected into the flank of 5-6 weeks old female NOD/SCID/IL-2rg(ko)(NSG). When palpable tumor sizes reached at approximately 50 mm^3, mice were divided into three groups (vehicle=9, 5 mg/kg dose group=8, 10 dose mg/kg group=8). Then, S enantiomer was orally administered at 5 mg/kg or 10 mg/kg with vehicle (10% DMSO+30% Solutol+60% saline), once daily for 20 days. Tumor volumes were calculated by the formula 1/2a×b^2, where a is the long diameter, and b is the short diameter. Tumor volumes correlate with tumor weights. The statistical significance of group differences was analyzed using a Student's t-test with the two-tailed distribution. P values less than 0.05 were considered statistically significant.
# MOLM-13 AML cells = assay: MTS cell viability assay; type: cell-based; details: MOLM13 AML cells
# Method: (§1) IC50 Determinations for Ovarian, Liver, Pancreatic, CML, AML Cancer Cell Lines (See e.g. FIGS. 4, 6A-6C, 21, 22A, 22B, 23, 24A-24C, 25A, 25B and 34): MTS assays were performed for cell viability. SKOV3 ovarian cancer, Huh-7 hepatocellular carcinoma, MIA-PaCa2 pancreatic cancer, KCL-22 CML, T315I mutant KCL-22 CML, MOLM-13 AML and MV4-11 AML cells were seeded in 96-well plates (5000 cells/well for solid tumors, 10000 cells/well for blood tumors), incubated overnight at 37° C. in 5% CO2, and exposed to racemic ETP69 or S enantiomer in a dose-dependent manner for 48 h. Dimethyl sulfoxide (DMSO) was used as the vehicle control. Viable cell numbers were determined by tetrazolium conversion to its formazan dye and absorbance was measured at 490 nm using an automated ELISA plate reader. Each experiment was performed in quadruplicate.
# MV4-11 AML cells = assay: MTS cell viability assay; type: cell-based, human; details: MV4-12 AML cells
# Method: as §1
# [1] = test system: HCT116 colon cancer cells; assay: MTS cell viability assay; type: cell-based
compound,measurement,setting,value
"CN1C(=O)[C@@]23C[C@](C)(C#N)[C@H](c4ccc5c(c4)OCO5)N2C(=O)[C@]1(C)SS3 (single isomer, unassigned) [ETP417]",tumor volume,MV4-11 AML SQ xenografts,decreased
same,tumor weight,MV4-11 AML SQ xenografts,decreased
same,activity compared with the corresponding R enantiomer (ETP422),MOLM-13 AML cells,significantly greater activity
same,activity compared with the corresponding R enantiomer (ETP422),MV4-11 AML cells,significantly greater activity
same,viability inhibition compared with ETP422 and ETP69,[1],greater viability inhibition
